The list shows a part of the results. These are further read-outs of the screen, such as a control signal, another cell line or another target. No call is given for them. Compounds called inactive in the main read-out are mostly missing here. Words in brackets tell the shape of the fitted curve; partial curves, single points and poor fits give uncertain potencies.
Assay: qHTS Assay for Lipid Storage Modulators in Drosophila S3 Cells;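 for cell number change: cells counted by Cell Tracker Red CMTPX staining in the red channel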
Conditions: BODIPY lipid droplet fluorescence, 18-24 h; for cell number change: measured here: cell count max response, cells fed with added oleic acid
Summary of the method: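 Drosophila S3 cells got compounds at several concentrations plus oleic acid (400 uM solution). Laser-scanning cytometry with 488 nm excitation read lipid droplets at 500-530 nm and cells at 575-640 nm. Percent activity was relative to 20 uM Triacsin C.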

[1] = measured here: lipid fluorescence (Fed channel) AC50, cells fed with added oleic acid
[2] = measured here: cell number channel AC50, cells fed with added oleic acid

Structure (SMILES)	cell number change	AC50 [1]	AC50 [2]
Nc1cc(=O)[nH]c(SCC(=O)Nc2ccccc2Sc2ccccc2)n1	39.9%	0.082 µM [falling, partial curve, poor fit]	–
FC(F)(F)c1ccccc1NC(=S)N1CCc2ccccc2C1	–	–	2.06 µM [rising, partial curve, poor fit]
COc1ccc(/C=C/c2nc(-c3ccccc3O)n[nH]2)cc1	-13.8%	29.1 µM [falling, single point]	0.326 µM [falling, full curve, poor fit]
COc1ccc(N2C(=O)/C(=C\c3ccco3)N=C2SCC(=O)NC(C)C)cc1Cl	-22.3%	18.4 µM [falling, single point]	–
S=C(NCc1ccc2c(c1)OCO2)NCc1ccc2c(c1)OCO2	–	–	4.11 µM [rising, single point]
COc1cccc(N2CC(NS(=O)(=O)c3cccs3)CC2=O)c1 (configuration not stated)	44.2%	29.1 µM [rising, single point]	29.1 µM [rising, single point]
COC(=O)C1=CN(Cc2cccs2)C=C(C(=O)OC)C1c1cccc(OC)c1OC	-0.573%	2.59 µM [rising, single point]	0.082 µM [falling, full curve, poor fit]
Cc1[nH]c(C(=O)N/N=C/c2ccc(N(C)C)cc2)c(C)c1C(=O)N/N=C/c1ccc(N(C)C)cc1	81.2%	–	13 µM [rising, partial curve]
CCN(CC)c1ccc(-c2nn3c(-c4cccnc4)nnc3s2)cc1	-5.46%	0.731 µM [falling, full curve]	–
S=c1[nH]nc2c3c4c(sc3ncn12)CCCC4	10.5%	9.2 µM [rising, partial curve, poor fit]	–
CCn1nc(CC(=O)Nc2nnc(CC(=O)N3CCCCC3)s2)c2ccccc2c1=O	132%	20.6 µM [rising, partial curve]	23.1 µM [rising, partial curve]
C=CCn1c(CNS(=O)(=O)c2ccc(Cl)cc2)n[nH]c1=S	–	5.8 µM [rising, full curve, poor fit]	–
CCCc1cc(=O)[nH]c(SCC(=O)NC2CCCCC2)n1	-27.3%	23.1 µM [falling, partial curve]	0.82 µM [falling, full curve, poor fit]
CCOc1ccc(NC(=O)N2CCN(Cc3ccc4c(c3)OCO4)CC2)cc1	-18.9%	23.1 µM [falling, single point]	–
CC(OC(=O)c1ccc(-n2cnnn2)cc1)C(=O)Nc1ccccc1[N+](=O)[O-] (configuration not stated)	-5.13%	0.164 µM [falling, full curve, poor fit]	–
NC(=S)Nc1cccc2cnccc12	18.2%	29.1 µM [falling, single point]	–
Cc1cccc(COc2ccc(S(=O)(=O)N3CCOCC3)cc2[N+](=O)[O-])c1	32.3%	18.4 µM [falling, partial curve]	4.61 µM [rising, partial curve]
O=C1CC(c2ccsc2)c2cc3c(cc2N1)OCCO3 (configuration not stated)	12.2%	–	3.66 µM [falling, single point]
CC(=O)N1CCOc2ccc(S(=O)(=O)N3CCC(C(=O)Nc4ccccc4F)CC3)cc21	9.16%	16.4 µM [rising, partial curve]	–
CCOc1ccc(Br)cc1-c1noc(-c2cccs2)n1	-16%	3.66 µM [rising, single point]	–

4 entries already listed, sorted by count of non-hydrogen atoms, low to high.
Structure (SMILES)	cell number change	AC50 [1]	AC50 [2]
Nc1cc(=O)[nH]c(SCC(=O)Nc2ccccc2Sc2ccccc2)n1	39.9%	0.082 µM [falling, partial curve, poor fit]	–
Cc1cccc(COc2ccc(S(=O)(=O)N3CCOCC3)cc2[N+](=O)[O-])c1	32.3%	18.4 µM [falling, partial curve]	4.61 µM [rising, partial curve]
CCOc1ccc(NC(=O)N2CCN(Cc3ccc4c(c3)OCO4)CC2)cc1	-18.9%	23.1 µM [falling, single point]	–
CCn1nc(CC(=O)Nc2nnc(CC(=O)N3CCCCC3)s2)c2ccccc2c1=O	132%	20.6 µM [rising, partial curve]	23.1 µM [rising, partial curve]

(more compounds)

Structure (SMILES)	cell number change	AC50 [1]	AC50 [2]
Cc1cc(Oc2ccccc2)nc(N)n1	-31.4%	23.1 µM [falling, single point]	32.6 µM [falling, single point]
CC1CCCC(C)N1C(=O)COC(=O)c1ccc(O)cc1 (configuration not stated)	37.8%	–	32.6 µM [rising, partial curve]
COc1ccc(OC)c(CN2CCN(C(=O)CCNC(=O)c3ccc(Br)cc3)CC2)c1	144%	16.4 µM [falling, single point]	18.4 µM [rising, partial curve]
CC(/C=N\NC(=O)Cn1c(C)nc2ccccc21)=C\c1ccccc1	-39.5%	29.1 µM [falling, single point]	18.4 µM [falling, partial curve]
O=C(N/N=C/c1ccc(OCC(=O)N2CCCC2)cc1)C(=O)NC1CC1	-0.951%	29.1 µM [rising, single point]	–
CC(C)Cn1cnc2c1c(=O)n(CC(=O)O)c(=O)n2Cc1ccccc1	-8.33%	–	–
Cc1cccc(CNC(=O)c2ccc(NC(=O)C3=CSCCO3)cc2)c1	22.4%	1.84 µM [rising, partial curve]	0.13 µM [rising, full curve, poor fit]
Oc1c(Cl)cc(Cl)cc1C=Nc1cc(C(F)(F)F)ccc1N1CCc2ccccc2C1	3.19%	3.66 µM [rising, partial curve, poor fit]	–
CCN(CC1CCCN(CCc2cccc(F)c2)C1)C(=O)c1ccc(CSC)o1 (configuration not stated)	-10.9%	6.51 µM [rising, single point]	–
O=C(CSc1ccc2nnc(-c3cccnc3)n2n1)N1CCOCC1	4.29%	6.51 µM [rising, single point]	1.46 µM [rising, partial curve, poor fit]
Cc1ccc(NC(=O)COc2cccnc2[N+](=O)[O-])cc1S(=O)(=O)N1CCCCC1	-22.4%	29.1 µM [falling, single point]	–
O=C(C1CC1)N1CCN(C(c2ccccc2)c2ccccc2)CC1	39%	1.3 µM [rising, partial curve, poor fit]	18.4 µM [rising, partial curve]
CCOC(=O)c1cc(C(=O)Nc2ccc(S(=O)(=O)Nc3ccc(OC)cc3)cc2)nn1C	-17.4%	–	–
Cc1cc(=O)oc(C)c1C(=O)NCCN1CCOCC1	2.88%	–	–
CC1CCCC(C(=O)O)N1C(=O)CCSSCCC(=O)N1C(C)CCCC1C(=O)O (configuration not stated)	-33%	5.8 µM [falling, full curve]	3.26 µM [falling, partial curve, poor fit]
O=C(COc1ccccc1)N1CCCC1	42.1%	–	13 µM [rising, partial curve, poor fit]
CN1CCN(C2CCCCC2NS(=O)(=O)c2ccc(Cl)cc2)CC1 (configuration not stated)	-3.36%	–	–
C/C(=N\NC(=O)c1ccco1)c1ccc(NC(=O)c2cccs2)cc1	10.5%	0.731 µM [rising, single point]	–
COc1ccc(Br)cc1/C=N/NC(=O)c1ccc(OC)c(OC)c1	22.2%	4.11 µM [rising, full curve, poor fit]	3.66 µM [rising, single point]
O=C(Nc1ccc(Oc2cccnc2)cc1)c1cccc([N+](=O)[O-])c1	-9.7%	0.651 µM [rising, full curve]	–

Structure (SMILES)	cell number change	AC50 [1]	AC50 [2]
COc1ccc(C)cc1Nc1n[n+](C)c(-c2c3ccccc3cc3ccccc23)s1	11%	–	–
Cc1cc(C)cc(-c2nnc(SCc3ccc(C(=O)O)cc3)o2)c1	15.2%	–	–
CCC(C)(C)NC(=O)C(c1cccc(OC)c1OC)N(C(=O)CCC(=O)Nc1cc(C)on1)c1ccc2c(c1)OCCO2 (configuration not stated)	7.08%	–	–
COc1ccc(CNC(=O)C2CC(=O)N(c3ccc(OCC(=O)N4CCCCC4)cc3)C2)cc1 (configuration not stated)	-1.85%	0.146 µM [rising, full curve, poor fit]	–
O=C(CCN1C(=O)C2CCCCC2C1=O)Nc1nc2c(F)cc(F)cc2s1 (configuration not stated)	-28.8%	29.1 µM [falling, single point]	–
COC(=O)C1=C(C(=O)OC)C2C(C)=CC(C)=CN2C(C(=O)OC)=C1C(=O)OC (configuration not stated)	–	–	0.731 µM [rising, single point]
O=C(NCC1CCCO1)c1cccc(NS(=O)(=O)c2ccccc2)c1 (configuration not stated)	2.04%	–	–
O=C(/C=C\Nc1ccc(S(=O)(=O)Nc2ncccn2)cc1)c1cccc2ccccc12	38.5%	7.31 µM [rising, partial curve]	5.17 µM [rising, partial curve]
CC1(C(=O)N2CCC(CC3CC(c4cccc(Br)c4)=NO3)(C(=O)NCC3CCCCC3)CC2)CC1 (configuration not stated)	1.94%	–	–
CCOC(=O)Cn1nnnc1C(C(C)C)N(Cc1cccs1)Cc1cc2cc(C)ccc2[nH]c1=O (configuration not stated)	-3.29%	–	–
CCOC(=O)N1CCC(N2C(=O)c3ccc(C(=O)NCCC(C)C)cc3C2=O)CC1	15.3%	–	–
O=C(Cn1cnc2ccccc2c1=O)c1c[nH]c2ccccc12	11.9%	3.26 µM [rising, single point]	–
CC(C)(C)c1ccc(C(=O)c2c[nH]c(C(=O)O)c2)cc1	-15.4%	–	6.51 µM [rising, single point]
CC(=O)c1ccc(O)c(CO)c1	-4.79%	0.0058 µM [falling, full curve, poor fit]	–
COc1cccc(C(=O)Nc2ccc(N(C)C)cc2)c1OC	32.7%	4.11 µM [rising, partial curve]	2.06 µM [rising, full curve, poor fit]
CCOc1cc(C#N)c(NC(=O)c2ccnn2C)cc1OCC	11.1%	–	–
CC(Nc1ccc(Cl)cc1)C(=O)NN (configuration not stated)	43.2%	29.1 µM [rising, single point]	29.1 µM [rising, single point]
CCOc1ncccc1C(=O)OCC(=O)Nc1c(C)cccc1C	–	0.0651 µM [rising, full curve, poor fit]	0.0517 µM [rising, full curve, poor fit]

Source: PubChem BioAssay AID2685 (National Center for Advancing Translational Sciences (NCATS), 2010)
